The list shows a part of the results.

Holding throughout (test): glycan array binding signal (z-score within array); higher = stronger binding
Holding throughout (details): glycan notation: IUPAC condensed, linker removed; mutation: R201A

Assay [1] has as its target Gal(b1-4)GlcNAc(b1-2)Man(a1-6)[GlcNAc(b1-2)Man(a1-3)]Man(b1-4)GlcNAc(b1-4)GlcNAc. The method, boiled down:
(§1)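 Arrays were curated from the Consortium for Functional Glycomics database, 3228 in total, and kept only where the protein sequence was available. Binding is expressed as a within-array Z-score. This score was averaged across arrays of the same protein sequence at different concentrations or buffers and across linkers, and negative values can be read as non-binding.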

For assay [2], the target named is Gal(b1-4)GlcNAc(b1-2)Man(a1-6)[Man(a1-3)]Man(b1-4)GlcNAc(b1-4)GlcNAc. The method, boiled down:
as §1

Assay [3] deals with Gal(b1-4)GlcNAc(b1-2)[Gal(b1-4)GlcNAc(b1-4)]Man(a1-3)[Gal(b1-4)GlcNAc(b1-2)Man(a1-6)]Man(b1-4)GlcNAc(b1-4)GlcNAc. In short, it runs like this: as §1
In assay [4] the target is Gal(b1-4)GlcNAc(b1-2)[Gal(b1-4)GlcNAc(b1-4)]Man(a1-3)[Gal(b1-4)GlcNAc(b1-2)[Gal(b1-4)GlcNAc(b1-6)]Man(a1-6)]Man(b1-4)GlcNAc(b1-4)GlcNAc. The method, boiled down:
as §1

For assay [5], the target named is Gal(b1-4)GlcNAc(b1-2)[Gal(b1-4)GlcNAc(b1-4)]Man(a1-3)[GlcNAc(b1-4)][Gal(b1-4)GlcNAc(b1-2)Man(a1-6)]Man(b1-4)GlcNAc(b1-4)GlcNAc. In short, it runs like this:
as §1

The target of assay [6] is Gal(b1-4)GlcNAc(b1-2)[Gal(b1-4)GlcNAc(b1-4)]Man(a1-3)[GlcNAc(b1-4)][Gal(b1-4)GlcNAc(b1-2)[Gal(b1-4)GlcNAc(b1-6)]Man(a1-6)]Man(b1-4)GlcNAc(b1-4)GlcNAc. The method, boiled down:
as §1

Assay [7] has as its target Gal(b1-4)GlcNAc(b1-2)[Gal(b1-4)GlcNAc(b1-6)]Man(a1-6)[Gal(b1-4)GlcNAc(b1-2)Man(a1-3)]Man(b1-4)GlcNAc(b1-4)GlcNAc. In short, it runs like this: as §1
In assay [8] the target is Gal(b1-4)GlcNAc(b1-2)[Gal(b1-4)GlcNAc(b1-6)]Man(a1-6)[Gal(b1-4)GlcNAc(b1-2)Man(a1-3)]Man(b1-4)GlcNAc(b1-4)[Fuc(a1-6)]GlcNAc. In short, it runs like this:
as §1

Assay [9] has as its target Gal(b1-4)GlcNAc(b1-2)[Gal(b1-4)GlcNAc(b1-6)]Man(a1-6)[GlcNAc(b1-4)][Gal(b1-4)GlcNAc(b1-2)Man(a1-3)]Man(b1-4)GlcNAc(b1-4)GlcNAc. In short, it runs like this:
as §1

The target in assay [10] is Gal(b1-4)GlcNAc(b1-2)[Gal(b1-4)GlcNAc(b1-6)]Man(a1-6)[GlcNAc(b1-4)][Gal(b1-4)GlcNAc(b1-2)[Gal(b1-4)GlcNAc(b1-4)]Man(a1-3)]Man(b1-4)GlcNAc(b1-4)[Fuc(a1-6)]GlcNAc. The method, boiled down: as §1
The target of assay [11] is Gal(b1-4)GlcNAc(b1-3)Gal(b1-3)GalNAc. The method, boiled down:
as §1

Assay [12] deals with Gal(b1-4)GlcNAc(b1-3)Gal(b1-3)GlcNAc. The method, boiled down: as §1
Assay [13] addresses Gal(b1-4)GlcNAc(b1-3)Gal(b1-4)Glc. The method, boiled down:
as §1

Assay [14] addresses Gal(b1-4)GlcNAc(b1-3)Gal(b1-4)GlcNAc. The method, boiled down:
as §1

Assay [15] concerns the target Gal(b1-4)GlcNAc(b1-3)Gal(b1-4)GlcNAc(b1-2)Man(a1-3)[Gal(b1-4)GlcNAc(b1-3)Gal(b1-4)GlcNAc(b1-2)Man(a1-6)]Man(b1-4)GlcNAc(b1-4)GlcNAc. The method, boiled down: as §1
The target in assay [16] is Gal(b1-4)GlcNAc(b1-3)Gal(b1-4)GlcNAc(b1-2)Man(a1-3)[Gal(b1-4)GlcNAc(b1-3)Gal(b1-4)GlcNAc(b1-2)Man(a1-6)]Man(b1-4)GlcNAc(b1-4)[Fuc(a1-6)]GlcNAc. In short, it runs like this:
as §1

In assay [17] the target is Gal(b1-4)GlcNAc(b1-3)Gal(b1-4)GlcNAc(b1-2)[Gal(b1-4)GlcNAc(b1-3)Gal(b1-4)GlcNAc(b1-6)]Man(a1-6)[Gal(b1-4)GlcNAc(b1-3)Gal(b1-4)GlcNAc(b1-2)Man(a1-3)]Man(b1-4)GlcNAc(b1-4)GlcNAc. In short, it runs like this:
as §1

The target of assay [18] is Gal(b1-4)GlcNAc(b1-3)Gal(b1-4)GlcNAc(b1-2)[Gal(b1-4)GlcNAc(b1-3)Gal(b1-4)GlcNAc(b1-6)]Man(a1-6)[Gal(b1-4)GlcNAc(b1-3)Gal(b1-4)GlcNAc(b1-2)Man(a1-3)]Man(b1-4)GlcNAc(b1-4)[Fuc(a1-6)]GlcNAc. In short, it runs like this:
as §1

B1: OS9 (Arabidopsis thaliana) (protein)
chain: MRGSHHHHHHGMASMTGGQQMGRDLYDDDDKSRLQIFPAHLVGTFSRNNREPKYKIEFLPEDSPFHPGDNLESMVMLDKHGNRFLCYLPKEEKATSGWTSSQQNISTVMMETQQLVKLKTPDELLQPLSEKCLFRQEGWWSYEFCHQKYVRQLHVEDENKIVQEFFLGTFDPEATAAFNQTVSDASTDASQRYHSHVYTNGTTCDLTGSPAEVEVRFVCAETRAMVTSITELSTCKYALTVQCPTLCKHPLFQLEKPVSHTIHCNAIPVEEDATRNKEEQAVDESPKMIADS
B1: the “glycan array binding signal (z-score)” value in assay [1] is -0.719; in assay [2] it was 0.448; in [3], -0.605; in assay [4], -0.525; in assay [5], -1.19; in assay [6], 0.727. For the same molecule, the “glycan array binding signal (z-score)” value was -1.21 in assay [7]; -0.276 in assay [8]; 0.041 in assay [9]; 1.83 in assay [10]; -0.513 in assay [11]; 0.799 in assay [12]. The “glycan array binding signal (z-score)” value in [13] was -0.35; in assay [14] it was 0.611; in assay [15] it was 0.354; in [16], 0.84; in [17], 0.481; in assay [18] it was -0.765.

These data come from the supplement of paper PMC8728848.
